Source: PubChem BioAssay AID1487 (National Center for Advancing Translational Sciences (NCATS), 2009)
The other results are listed elsewhere or left out. Further columns of the screen follow, without active or inactive calls. Most of these compounds were active or inconclusive in the main read-out, so they are no random draw. The note in brackets gives the kind of curve behind each potency; many fits are weak.

Test: qHTS Assay for Modulators of Lamin A Splicing
Conditions: HeLa LMNA splicing GFP/RFP minigene ratio, 48 h
Method in brief: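 Read-out is the ratio of GFP to DsRed2 object intensity, acquired by 488 nm laser-scanning cytometry on HeLa lamin A-EGFP minigene reporter cells. Compound incubation 48 hrs at 37 °C in Opti-MEM with 2% FBS; DMSO 0.5% final.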

[1] = measured here: RFP viability control channel
[2] = measured here: GFP splicing reporter channel

Compound	AC50 [1]	AC50 [2]
COc1cc(CNCCSc2nnnn2C)cc(Br)c1OCc1ccc(F)cc1	31.6 µM [rising, single point]	–
CC(C(=O)O)N1C(=O)/C(=C/c2cccn2C)SC1=S (stereo not given)	0.0126 µM [falling, full curve, poor fit]	5.01 µM [falling, partial curve]
N/C(CSc1nc(-c2ccccc2)c(-c2ccccc2)o1)=N\O	–	14.1 µM [rising, single point]
CC=C(/C(=C/C)c1ccc(O)cc1)c1ccc(O)cc1	0.01 µM [falling, full curve, poor fit]	3.55 µM [falling, single point]
CCCC(=O)Nc1ccccc1Sc1ncnc2scc(-c3ccccc3)c12	12.6 µM [rising, partial curve, poor fit]	15.8 µM [rising, single point]
Cc1[nH]c2ccccc2c1/C=N/Nc1ccc([N+](=O)[O-])cc1	35.5 µM [rising, single point]	31.6 µM [rising, single point]
O=C(C1CCN(c2ncnc3c2nc2n3CCCCC2)CC1)N1CCN(c2ccc(F)cc2)CC1	–	11.2 µM [falling, partial curve]
COc1cccc(C(=O)Nc2ccc(S(=O)(=O)Nc3cc(C)nc(C)n3)cc2)c1	7.94 µM [rising, partial curve, poor fit]	6.31 µM [rising, partial curve, poor fit]
O=C(c1ccc(S(=O)(=O)c2ccccc2Cl)c([N+](=O)[O-])c1)N1CCCCCC1	15.8 µM [rising, partial curve]	–
COc1ccccc1-c1nc2ccccc2nc1-c1ccccc1	20 µM [rising, single point]	11.2 µM [rising, partial curve]
CC(=O)Oc1cc2c(cc1Cl)C1(CC(c3ccccc3Cl)O2)CC(C)(C)NC(=S)N1 (stereo not given)	22.4 µM [rising, single point]	22.4 µM [rising, single point]
COc1cccc(-c2nnc(NC(=O)c3ccc(S(=O)(=O)N(CC(C)C)CC(C)C)cc3)o2)c1	4.47 µM [rising, partial curve]	–
Cc1ccc(OCC(=O)NCC2(N3CCOCC3)CCCCC2)cc1C	0.00316 µM [falling, full curve, poor fit]	–
CC1=CC(C)C2(CO)COC(c3ccc(O)cc3)C1C2C (stereo not given)	0.00355 µM [rising, full curve, poor fit]	–
COc1ccc(CCN2C(=O)C(Oc3ccccc3C)C2c2ccc3c(c2)OCO3)cc1 (stereo not given)	35.5 µM [rising, single point]	–
COC(=O)C1=C2SC(C)C(=O)N2C(N)=C(C#N)C1c1ccc(OC)c(OC)c1 (stereo not given)	–	4.47 µM [rising, full curve, poor fit]
CN(c1ccccc1)S(=O)(=O)c1ccc(C(=O)Nc2nnc(-c3ccc(F)cc3)o2)cc1	2.82 µM [rising, single point]	–
Nc1cc(S(=O)(=O)N2CCCCC2)ccc1Oc1ccc(Cl)cc1	–	11.2 µM [falling, partial curve, poor fit]
COc1ccc(CCNC(=O)CCN2C(=O)c3ccccc3C2=O)cc1OC	3.55 µM [falling, partial curve, poor fit]	–
OC(COC(c1ccc(Cl)cc1)c1ccc(Cl)cc1)CN1CCN(c2ccccn2)CC1 (stereo not given)	35.5 µM [falling, single point]	35.5 µM [falling, single point]
CCC(Oc1ccccc1)C(=O)Nc1ccc(S(=O)(=O)NCC2CCCO2)cc1 (stereo not given)	11.2 µM [rising, partial curve]	–
CN(C)CCCN1c2ccccc2Sc2ccc(C(F)(F)F)cc21	11.2 µM [falling, partial curve]	12.6 µM [falling, partial curve]
Cc1cccc(NC(=O)c2cc(S(=O)(=O)NCc3ccc4c(c3)OCO4)ccc2F)c1C	–	8.91 µM [falling, partial curve, poor fit]
Oc1ccc2oc3c(c2c1/C=N/n1cnnc1)CCCC3	0.282 µM [falling, full curve]	–
Cc1cc(C)c(C(CC(=O)c2cccs2)C(C#N)C#N)c(C)c1 (stereo not given)	12.6 µM [rising, partial curve]	–
O=C(NCc1ccc2c(c1)CCN2C(=O)c1ccccc1)Nc1cc(F)ccc1F	–	0.562 µM [rising, single point]

Compound	AC50 [1]	AC50 [2]
Cc1ccc(-c2csc3ncnc(NCCN4CCOCC4)c23)cc1	11.2 µM [falling, partial curve]	10 µM [falling, partial curve]
CCOc1ccc(C(C)=O)cc1COC(=O)c1cccnc1SC	35.5 µM [falling, single point]	35.5 µM [falling, single point]
CCCc1nnc(NC(=O)c2cccc(OC)c2)s1	0.0126 µM [rising, full curve, poor fit]	5.62 µM [rising, full curve, poor fit]
COc1ccc(Cl)cc1NS(=O)(=O)c1ccc(S(=O)(=O)N2CCCC2)cc1	25.1 µM [rising, single point]	11.2 µM [rising, partial curve]
CCOC(=O)c1c(C)sc(-c2c(-c3cc(C)ccc3C)[nH]c3c2c(=O)n(C)c(=O)n3C)c1O	7.94 µM [rising, partial curve]	12.6 µM [rising, partial curve]
OCC1(Cc2ccc(Cl)cc2)CCN(CCCc2ccccc2)CC1	–	0.0708 µM [falling, partial curve, poor fit]
Cc1ccc(NS(=O)(=O)c2ccc(C(=O)N3CCN(c4ccccn4)CC3)cc2)cc1	11.2 µM [rising, partial curve]	–
CCN(c1ccc(C)cc1)S(=O)(=O)c1nnc(NC(=O)C2CCCCC2)s1	–	1.58 µM [rising, partial curve, poor fit]
CCCNC(=O)CSc1nc2ccccc2nc1Cc1ccc(Cl)cc1	1.78 µM [rising, partial curve]	3.16 µM [rising, partial curve]
CCOC(=O)/C(=C\c1ccc([N+](=O)[O-])cc1)C(=O)c1cc(C(C)=O)c(Nc2ccccc2)s1	10 µM [falling, single point]	5.01 µM [falling, single point]
Cc1ccc(OCC(=O)NCC(c2ccc(Cl)cc2)N2CCCCC2)cc1 (stereo not given)	–	31.6 µM [falling, single point]
Cc1cc(C(=O)Nc2ccccc2C(=O)O)ccc1NC(=O)COc1cccc([N+](=O)[O-])c1	0.0562 µM [falling, full curve]	0.0891 µM [falling, full curve, poor fit]
O=S(=O)(c1ccccc1)N1CCN=C1SCc1cccc(Cl)c1	20 µM [rising, single point]	11.2 µM [rising, single point]
O=Cc1ccccc1C=O	–	11.2 µM [rising, partial curve, poor fit]
CCOC(=O)C1=C(C)NC(C)=C(C(=O)OCC)C1/C=C/c1ccccc1OC	35.5 µM [rising, single point]	31.6 µM [rising, single point]
Cc1ccc(C(C(=O)NC(C)(C)C)N(Cc2ccccc2)C(=O)c2snc(C(N)=O)c2N)o1 (stereo not given)	20 µM [rising, single point]	–
CCC(C(=O)Nc1nnc2n1CCS2)c1ccccc1 (stereo not given)	0.0708 µM [falling, full curve, poor fit]	–
Cc1ccc(Nc2nc(N)c([N+](=O)[O-])c(NCc3ccco3)n2)cc1C	14.1 µM [falling, single point]	11.2 µM [falling, partial curve]
CCOc1ccc(-c2n[nH]c(C)c2Oc2ccccc2OC)c(O)c1	35.5 µM [rising, single point]	–
CS(=O)(=O)N(Cc1ccccc1)c1ccc(C(=O)N2CCN(c3cccc(Cl)c3)CC2)cc1	22.4 µM [rising, single point]	–
CC(=O)c1ccccc1NC(=O)CN1C(=O)CS/C1=C\c1nc(-c2ccc(C)cc2)cs1	0.00398 µM [falling, full curve, poor fit]	0.00447 µM [falling, full curve, poor fit]
CCOc1ccc2nc(NC(=O)CSc3nc4c(c(=O)n(C)c(=O)n4C)n3C(C)C)sc2c1	10 µM [rising, partial curve]	15.8 µM [rising, partial curve, poor fit]
Cc1ccc(NS(=O)(=O)c2cnc(N)nc2)c(C)c1	–	0.0447 µM [falling, full curve, poor fit]
Cc1ccccc1S(=O)(=O)Cc1ccc(C(=O)N2CCN(c3ccc(F)cc3)CC2)o1	31.6 µM [rising, single point]	–
COc1ccc(-c2nn(-c3ccccc3)cc2/C=N/NC(=O)c2cccc(S(=O)(=O)Nc3ccccc3OC)c2)cc1	11.2 µM [rising, partial curve]	–
COc1ccccc1N1CCN(C(=O)c2ccc(Cl)c(S(=O)(=O)N3CCCC3)c2)CC1	3.16 µM [falling, partial curve, poor fit]	2.82 µM [falling, partial curve, poor fit]
